Values from PubChem BioAssay AID1259254 (NCATS, 2017)

- Assay: 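Gene knock-downs that lead to re-replication, shown by excess G2 DNA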 (primary screen)
- Cell system: human HCT116 colorectal cancer cells
- Knock-down reagent: single siRNA against human genes
- Timing: 3 days
- Read-out: 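Nuclei stained with Hoechst and imaged; cell-cycle phase assigned by DNA content; G2 share scaled per plate, non-targeting siRNA 0%, GMNN siRNA 100%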
- Reading the numbers: G2 robust z-score: higher = more G2 cells, more excess DNA replication
- Active means: 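Active siRNAs have a G2 robust z of 5 or more median absolute deviations over the median, which in these data means about 38% or higher of GMNN control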
Shown is an unselected part of about 59,000 reagents. About 1,550 of all reagents (2.6%) were called active. 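G2 share is only a proxy for re-replication; each gene was hit by three separate siRNAs, and active genes were retested.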 A number with no mark means an inactive call. Reagents against one gene are numbered here. Not all columns of the deposit are shown. Reagent sequences are not shown. Not stated in the record: the amount of reagent.

PEX13 (peroxisomal biogenesis factor 13) #1
- G2 robust z-score: -0.836

PEX13 (peroxisomal biogenesis factor 13) #2
- G2 robust z-score: -1.67

PEX13 (peroxisomal biogenesis factor 13) #3
- G2 robust z-score: -0.8

EXOSC10 (exosome component 10) #1
- G2 robust z-score: 0.0331

EXOSC10 (exosome component 10) #2
- G2 robust z-score: -0.459

EXOSC10 (exosome component 10) #3
- G2 robust z-score: 0.751

FA2H (fatty acid 2-hydroxylase) #1
- G2 robust z-score: 0.0828

FA2H (fatty acid 2-hydroxylase) #2
- G2 robust z-score: 0.773

FA2H (fatty acid 2-hydroxylase) #3
- G2 robust z-score: -0.672

MSTN (myostatin) #1
- G2 robust z-score: 1.19

MSTN (myostatin) #2
- G2 robust z-score: -0.964

MSTN (myostatin) #3
- G2 robust z-score: 2.27

WNK4 (WNK lysine deficient protein kinase 4) #1
- G2 robust z-score: 1.77

WNK4 (WNK lysine deficient protein kinase 4) #2
- G2 robust z-score: 0.26

WNK4 (WNK lysine deficient protein kinase 4) #3
- G2 robust z-score: 0.529

EIF5A2 (eukaryotic translation initiation factor 5A2) #1
- G2 robust z-score: 0.686

EIF5A2 (eukaryotic translation initiation factor 5A2) #2
- G2 robust z-score: -0.63

EIF5A2 (eukaryotic translation initiation factor 5A2) #3
- G2 robust z-score: 1.17

PTF1A (pancreas associated transcription factor 1a) #1
- G2 robust z-score: -0.811

PTF1A (pancreas associated transcription factor 1a) #2
- G2 robust z-score: 3.14

PTF1A (pancreas associated transcription factor 1a) #3
- G2 robust z-score: -1.15

CPNE9 (copine family member 9) #1
- G2 robust z-score: -0.677

CPNE9 (copine family member 9) #2
- G2 robust z-score: -0.757

CPNE9 (copine family member 9) #3
- G2 robust z-score: 0.199

3 successive reagents already listed, quoted:
FA2H (fatty acid 2-hydroxylase) #2
- G2 robust z-score: 0.773

FA2H (fatty acid 2-hydroxylase) #3
- G2 robust z-score: -0.672

MSTN (myostatin) #1
- G2 robust z-score: 1.19
